These are yes or no findings as the source states them, for the method shown. Binding seen in cells or lysates may run through a third protein. A yes stands for co-enrichment or nearness to the bait. Other partners may have been found. Sequences can lack the tags named with a protein.
T1: GFP-COR28 (COLD REGULATED GENE 28) (Arabidopsis thaliana) (UniProt Q8L983)
T1 sequence: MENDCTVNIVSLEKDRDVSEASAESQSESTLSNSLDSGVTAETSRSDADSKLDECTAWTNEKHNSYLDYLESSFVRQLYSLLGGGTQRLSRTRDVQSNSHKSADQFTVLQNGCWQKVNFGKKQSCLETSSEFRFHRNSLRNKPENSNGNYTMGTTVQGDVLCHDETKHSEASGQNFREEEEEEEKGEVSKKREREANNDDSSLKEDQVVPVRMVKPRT

B1: SPA2 (protein, UniProt Q9T014 1-1036)
chain: MMDEGSVGDVSRIDEADVAHLQFKNSEQSFKPENIEVREVKEVQVQREAGSPDCSYGVIADFLDGKNGGDHVELIGNEPCSSRQNTNDEGDVVEELTVKTCEGSSMAIVGRPSSRARLEMNRSQFLHRFPLDGDLPGSSSMSKKVIDRGTVSILRNAGKMSLPETSNGQLAIIAVNGEANEHLTNVERNPVPVEALSHEGIKTKMLSQSGFSQFFVRKTLKGKGVTFRGPPNNRSKARNMDQQTVASSGSALVIANTSAKISSSIPLAAYDGLPCLPSNTSKPSSCANPSDTHRGCGGEGLSLREWLKSERQEVNKAECMYIFRQIVDHVDCSHSQGVVLCDLRPSSFKIFKENAVKYVVSGSQRESFDSNMNKETLSQLENPLVRRRLGDTSSLSIPAKKQKSSGPSSRQWPMFQRAGGVNIQTENNDGAIQEFHFRSSQPHCSTVACPFTSVSEQLEEKWYASPEELRGDMRSASSNIYSLGILLYELLSQFQCERAREAAMSDIRHRILPPKFLSENPKEAGFCLWLLHPESSCRPSTRDILQSEVVNGIPDLYAEGLSLSIEQEDTESELLQHFLFLSQEKRQKHAGNLMEEIASVEADIEEIVKRRCAIGPPSLEEASSSSPASSVPEMRLIRNINQLESAYFAARIDAHLPEARYRLRPDRDLLRNSDNTVAEVENSETWSSDDRVGAFFDGLCKYARYSKFETRGVLRTSELNNTSNVICSLGFDRDEDYFATAGVSKKIKIYEFNSLFNESVDIHYPAIEMPNRSKLSGVCWNNYIRNYLASSDYDGIVKLWDVTTGQAISHFIEHEKRAWSVDFSEACPTKLASGSDDCSVKLWNINERNCLGTIRNIANVCCVQFSPQSSHLLAFGSSDFRTYCYDLRNLRTPWCILSGHNKAVSYAKFLDNETLVTASTDNTLKLWDLKKTTHGGLSTNACSLTFGGHTNEKNFVGLSTSDGYIACGSETNEVYAYHRSLPMPITSYKFGSIDPISGKEIEEDNNLFVSSVCWRKRSNMVVSASSNGSIKVLQLV
B2: SPA3 (protein, UniProt Q9LJR3 1-845)
chain: MEGSSNSNSRGFNTSGVSDRNTEFLPVERLTTRSKPSSHVDEYVRSLFGSTSTHKSGEDDSLGIDPFVRSLEWGDVSLRQWLDKPERSVDVFECLHVFRQIVEIVNAAHSQGIVVHNVRPSCFVMSSFNHVSFIESASCSDSGSDSLEDGPISQKEIGSSRREEAVSKAIAIEEKGVYNKLLERKIEKLEEEKTQPFPMKHILAMETSWYTSPEEDFGSSSTCASDVYRLGVLLFELFCPVPSREEKSRTMSSLRHRVLPPQILLKCPKEASFCLWLLHPEPTCRPSMSDLLQSEFITEPRDNLEEREAAIELRDRIEEQESLLEFLLLIQQRKQESAYRLQDTVSLLSSDIEQVVKRQLILKKRGSSLSDFSKDDHQYTSGQPLMSFQANEEPSAFLASRKRVRQGILALENGVEVDEESQGSTLLESSRLMRNFKKLESVYFLTRRRQMKAAASGKSLTRHSPLSSENGRGSMIVSEKSSVSNPVAPKAFFNNDSRQGGWIDPFLEGLCRYLSFSQLRVKADLKQGDLLNSSNLVCALAFDREGELFATAGVNKKIKIFECNSIVNDNRDIHYPVVELAGRSKLSSLCWNSYIKSQIASSNFDGVVQIWDVARSQLVTEMKEHKKRVWSIDISSADPTLLASGSDDGTVKLWSINQGVSIGTIKTKANVCCVQFPSDSGRSLAFGSADHKVYYYDLRNPKIPLCTMIGHSKTVSYVKFVDSSTLVSSSTDNTLKLWDLSMSASGINESPLHSFTGHTNLKNFVGLSVSDGYIATGSETNEVFVYHKAFPMPVMSYMFNNTDSMSGLEVDDASQFISSICWRGQSSTLVAANSNGNIKILEMMT

Molecular target: T1, GFP-COR28 (COLD REGULATED GENE 28) (Arabidopsis thaliana)
Assay: affinity purification with mass spectrometry

Binder	binding
B1	binds
B2	binds
